# Target: Sodium channel protein type 5 subunit alpha (Homo sapiens, UniProt Q14524)
smiles,measurement,value
CN(C)CCOC(c1ccccc1)c1ccccc1 [DIPHENHYDRAMINE],IC50,41 µM
